Laboratory results taken from PubChem BioAssay AID1347075 (National Center for Advancing Translational Sciences (NCATS), 2019).
In all, about 400,000 compounds went through this assay and about 5,500 (1.4%) were called active. This list was built around the results that the source calls inconclusive (neither active nor inactive); the mix of calls is not that of the screen. The call rests on the fitted dose curve; in most records, active means well fitted cell-killing curve with a large enough effect; inconclusive means small, poorly fitted or top-dose-only effect, or effect the other way; inactive means flat fitted curve, though single readings scatter. A potency beside an inconclusive call is a rough fit, not a confirmed value. The source holds several records for some structures; these can differ, active in one and inactive in another.

Experiment: qHTS assay for MDR1-selective chemotherapeutics: Primary screen using the parental adenocarcinoma cell KB-3-1; further: nearly all actives have a fitted effect of over 60% in size
Conditions: KB-3-1 viability, CellTiter-Glo ATP luminescence, 72 h; activity change, negative = cytotoxic: at 46.1 µM (top of the series)
Procedure, shortened: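 KB-3-1 cells, DMEM (no phenol red) + 10% FBS; compound by pin transfer, 72 h, 37 °C. Readout: CellTiter-Glo luminescence after 10 min. Data normalized, curve-fitted.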
On the % scale 0 is the no-effect control and ±100 the full control effect; potency means the concentration at half of the fitted maximal effect.

| SMILES | Potency | activity change, negative = cytotoxic |
| --- | --- | --- |
| CC(C)n1nccc1N(Cc1ccc(Br)cc1)S(=O)(=O)c1ccccc1 | inconclusive: 18.4 µM [cytotoxic, single point] |  |
| CCC1CCCCN1C(=O)COC(=O)c1cncc(Br)c1 (centres undefined) |  | inactive: -1.03% |
| Cc1cccc(N2CCN(c3ccc(NC(=O)c4ccccc4)cc3C(=O)O)CC2C)c1 (centres undefined) |  | inactive: 1.63% |
| COc1ccc(-c2noc(CSc3nc(N)cc(=O)[nH]3)n2)cc1 | active: 20.6 µM |  |
| COc1ccc(N2CCN(c3nccs3)CC2)cc1 | inconclusive: 29.1 µM [rising, single point] |  |
| CCOC(=O)C1=CCN(S(=O)(=O)c2ccc(F)cc2)C1c1ccc(F)cc1 (centres undefined) |  | inactive: -6.76% |
| CCOc1ccccc1C(=O)Nc1ccc2nc3c(c(Nc4ccc(OC)c(OC)c4)c2c1)CCCC3 | inconclusive: 23.1 µM [cytotoxic, single point] |  |
| CCOC(=O)c1ccc(NC(=O)CN2Cc3ccccc3C2=O)cc1 |  | inactive: -6.52% |
| C(=C\c1cnc2ccccc2n1)/c1ccc2c(c1)OCO2 |  | inconclusive: -11.1% |
| CC(=O)OCC(=O)C1(O)CCC2C3CCC4C(OC(C)=O)C(=O)CCC4(C)C3C(=O)CC21C (centres undefined) |  | inactive: 9.39% |
| O=C(O)C1CCCCC1C(=O)NCCc1cccc(Cl)c1 (centres undefined) | inconclusive: 9.2 µM [cytotoxic, partial curve, poor fit] |  |
| O=C(CSc1ncnc2c1nnn2Cc1ccc(F)cc1)NCC1CCCO1 (centres undefined) | inconclusive: 29.1 µM [cytotoxic, partial curve, poor fit] |  |
| COc1cc(-c2nc3oc4ccccc4c(=O)c3c(=O)n2Cc2ccco2)cc(OC)c1OC | inconclusive: 20.6 µM [cytotoxic, single point] |  |
| O=C(CCc1ccccc1)NC(=S)Nc1cc(C(F)(F)F)ccc1N1CCOCC1 | inconclusive: 29.1 µM [cytotoxic, partial curve, poor fit] |  |
| CN(CCOc1ccc(Cl)c(Cl)c1)Cc1ccccc1 | inconclusive: 0.0651 µM [rising, full curve] |  |
| Cc1ccc(C)c(S(=O)(=O)N2CCN(C(=O)C3CCN(c4ncnc5sc(C)c(C)c45)CC3)CC2)c1 | active: 23.1 µM |  |
| CC1(C)CN(c2ccccc2)N(C(=O)c2ccc(C#N)cc2)C1=O | inconclusive: 18.4 µM [cytotoxic, single point] |  |
| CCn1c(=N)c(C(=O)NCC2CCCO2)cc2c(=O)n3cc(C)ccc3nc21 (centres undefined) |  | inactive: -8.06% |
| O=c1c2ccccc2n(Cc2c(F)cccc2Cl)c(=O)n1Cc1ccccc1 |  | inactive: -12.3% |
| COc1ccc(-c2nc3ccccc3s2)cc1NC(=O)c1cccc([N+](=O)[O-])c1C |  | inactive: 4.24% |
| CC(NC(=O)CSc1nc(-c2cccc(Cl)c2)nc2cc(=O)[nH]n12)c1nc2ccccc2n1C (centres undefined) |  | inactive: 18.5% |
| CS(=O)(=O)c1ccccc1-c1nnc(NC(=O)Cc2ccccc2)o1 |  | inactive: -9.86% |
| CC(NC(=O)c1ccccc1)c1ccc(F)cc1 (centres undefined) | inconclusive: 0.231 µM [rising, full curve, poor fit] |  |

Some of the entries so far, in CSV form.
SMILES,Potency,"activity change, negative = cytotoxic"
O=c1c2ccccc2n(Cc2c(F)cccc2Cl)c(=O)n1Cc1ccccc1,,inactive: -12.3%
COc1ccc(-c2nc3ccccc3s2)cc1NC(=O)c1cccc([N+](=O)[O-])c1C,,inactive: 4.24%

Next records follow:

| SMILES | Potency | activity change, negative = cytotoxic |
| --- | --- | --- |
| CC(=C/C(=O)O)/C(=C/c1ccccc1)C(=O)O |  | inactive: 8.83% |
| Cc1ccc(N2CC(C(=O)Nc3ccccc3C(=O)NC3CCCCC3)CC2=O)cc1C (centres undefined) | inconclusive: 29.1 µM [cytotoxic, single point] |  |
| O=C(NCc1cccs1)C1CCN(c2ccc(S(=O)(=O)N3CCOCC3)cc2Cl)CC1 | active: 2.31 µM |  |
| Cc1ccc2c(c1)sc1nc(=O)n(-c3ccc(Cl)c(Cl)c3)c(=O)n12 | inconclusive: 4.61 µM [rising, partial curve, poor fit] |  |
| Cc1ccc2nc(SCC(=O)c3ccc4c(c3)NC(=O)CO4)[nH]c2c1 | inconclusive: 2.06 µM [rising, full curve, poor fit] |  |
| CCCCOc1ccc(CNC(=O)C2CCCN(c3nnc(-n4c(C)ccc4C)s3)C2)cc1 (centres undefined) | inconclusive: 4.61 µM [cytotoxic, partial curve] |  |
| COc1ccc(C(=O)NCCn2cc(SCC(=O)Nc3ccc(F)cc3)c3ccccc32)cc1 | inconclusive: 29.1 µM [cytotoxic, single point] |  |
| FC(F)(F)c1nc2ccccc2nc1N/N=C\c1ccccc1 | inconclusive: 29.1 µM [cytotoxic, single point] |  |
| CCOC(=O)C1(Cc2cccc(OC)c2)CCN(CC2CC=CCC2)CC1 (centres undefined) |  | inactive: -11% |
| CCN(C(=O)CSc1nc2ccccc2c(=O)n1-c1cccc(C)c1)C1CCS(=O)(=O)C1 (centres undefined) | inconclusive: 13 µM [rising, partial curve, poor fit] |  |
| CCC(=O)Nc1ccc(/C=C(\C(C)=O)C(=O)c2ccccc2)cc1 | inconclusive: 29.1 µM [cytotoxic, single point] |  |
| Cc1ccc(C(=O)CC(C(=O)O)n2cncn2)cc1 (centres undefined) | inconclusive: 32.6 µM [rising, single point] |  |
| O=C(CSc1ccc2nnc(-c3ccc(Cl)cc3)n2n1)N1CCCc2ccccc21 | inconclusive: 25.9 µM [cytotoxic, partial curve, poor fit] |  |
| CCN(CC)C(=O)c1sc(NC(=O)C(Sc2ccccc2)c2ccccc2)c(C(=O)OC(C)C)c1C (centres undefined) | inconclusive: 25.9 µM [cytotoxic, single point] |  |
| Brc1cnc(N2CCCC2)nc1N1CCCCC1 | inconclusive: 29.1 µM [cytotoxic, single point] |  |
| CC1(C)CC(=O)c2cnc(N3CCN(c4ccccc4)CC3)nc2C1 | inconclusive: 25.9 µM [cytotoxic, partial curve] |  |
| NC(=O)CC(NC(=O)Cc1cccc2ccccc12)c1ccc(N2CCC(Cc3ccccc3)CC2)c([N+](=O)[O-])c1 (centres undefined) | inconclusive: 18.4 µM [cytotoxic, single point] |  |
| O=C(Nc1ccc2ccccc2c1)Nc1nnc(-c2cccnc2)s1 | inconclusive: 16.4 µM [rising, partial curve, poor fit] |  |
| CCN(c1ccc(OCC(=O)OCC(=O)Nc2ccc(F)c(F)c2F)cc1)S(=O)(=O)c1ccccc1 |  | inactive: 4.81% |
| O=C1CCCN2N=C(SCC(=O)Nc3cccc(C(F)(F)F)c3)SC2=N1 | inconclusive: 32.6 µM [cytotoxic, single point] |  |
| Cn1cnc([N+](=O)[O-])c1Oc1ccc2ccccc2c1 | inconclusive: 16.4 µM [cytotoxic, single point] |  |
| COc1ccc(/C=C2\SC(=S)N(CCCC(=O)N3CCCCC3CCO)C2=O)cc1 (centres undefined) | inconclusive: 29.1 µM [cytotoxic, single point] |  |

An excerpt from above in order of number of heavy atoms, falling.

| SMILES | Potency | activity change, negative = cytotoxic |
| --- | --- | --- |
| NC(=O)CC(NC(=O)Cc1cccc2ccccc12)c1ccc(N2CCC(Cc3ccccc3)CC2)c([N+](=O)[O-])c1 (centres undefined) | inconclusive: 18.4 µM [cytotoxic, single point] |  |
| Cn1cnc([N+](=O)[O-])c1Oc1ccc2ccccc2c1 | inconclusive: 16.4 µM [cytotoxic, single point] |  |
| Brc1cnc(N2CCCC2)nc1N1CCCCC1 | inconclusive: 29.1 µM [cytotoxic, single point] |  |

The list goes on.

| SMILES | Potency | activity change, negative = cytotoxic |
| --- | --- | --- |
| COc1ccc(C(=O)NC(C)c2cc(OC)c(OC)cc2Br)cc1 (centres undefined) | inconclusive: 10.3 µM [cytotoxic, single point] |  |
| COc1cccc(NC(=O)CN(C)C(=O)CSc2ncnc3sc(C)c(C)c23)c1 |  | inactive: 22.8% |
| O=C(CNc1ccccc1)N/N=C/c1c(O)ccc2ccccc12 | active: 16.4 µM |  |
| COc1ccc(NC(=O)C(CC(=O)O)Cc2ccc(Cl)cc2)cc1 (centres undefined) |  | inactive: 0.764% |
| CCN1C(=O)[C@H]2[C@H]3CN=C(SCC4CC4)N3[C@@](Cc3ccccc3)(C(=O)OC)[C@H]2C1=O |  | inactive: 0% |
| CS(=O)(=O)c1ccc(-c2cccc(NC(=O)COc3ccc(Cl)cc3)c2)nn1 | inconclusive: 13 µM [cytotoxic, partial curve, poor fit] |  |
| COC(=O)c1sc(N)nc1C(C)(C)C | inconclusive: 14.6 µM [cytotoxic, partial curve] |  |
| CCN1CCCC1CNc1ncnc2c1[nH]c1ccc(Cl)cc12 (centres undefined) | inconclusive: 18.4 µM [cytotoxic, single point] |  |
| CC(C)(C)NC(=O)c1cccc2c1C(=O)c1ccccc1-2 | inconclusive: 2.91 µM [rising, full curve, poor fit] |  |
| COc1ccc(C(C#N)=Cc2cccc(OC)c2OC)cc1 | inconclusive: 23.1 µM [cytotoxic, single point] |  |
| O=c1oc2ccccc2cc1-c1nc2c(s1)CCCC2 | inconclusive: 7.31 µM [cytotoxic, partial curve, poor fit] |  |
| C=CCC[C@@H](Cc1ccc(F)cc1)C(=O)OC[C@@H]1CCCN1C(=O)[C@H](CC=C)CC(=O)N[C@H](CO)Cc1ccccc1 | inconclusive: 29.1 µM [cytotoxic, single point] |  |
| Cc1ccn2c(CNCCCn3cccn3)c(C(=O)N3CCCCCC3)nc2c1 |  | inactive: -4.03% |
| CCc1cccc(C)c1Nc1c(-c2cccs2)nc2nc(C)cc(C)n12 |  | inactive: 8.74% |
| CNS(=O)(=O)c1cnccc1N1CCN(c2cccc(C(F)(F)F)c2)CC1 |  | inactive: -2.43% |
| CCc1nc(N2CCC(C)CC2)c2oc3ccccc3c2n1 |  | inactive: -0.578% |
| O=[N+]([O-])c1cccc(S(=O)(=O)Nc2ccc(S(=O)(=O)Nc3nccs3)cc2)c1 | inconclusive: 23.1 µM [rising, single point] |  |
| N#Cc1c(N)c(C(=O)c2ccc(Cl)cc2)n2c1CCC2 |  | inactive: 15.5% |
| CC(C)OC(=O)c1ccc(NCc2cc(O)ccc2O)cc1Cl | inconclusive: 29.1 µM [cytotoxic, single point] |  |
| COC(=O)c1ccc(COc2ccccc2/C=C(\C#N)C(=O)Nc2c(C)cc(C)cc2C)cc1 | active: 11.6 µM |  |
| COc1ccc(C(C)=O)cc1CSc1nnc(Nc2ccccc2C)s1 | inconclusive: 29.1 µM [cytotoxic, single point] |  |
| CCN(CC)c1ccc(NC(=O)CCS(=O)(=O)c2ccc3c(c2)oc(=O)n3C)c(C)c1 |  | inactive: 23% |
| Cc1ccc(NC(=O)Cn2c(=O)oc3cc(S(=O)(=O)N4CCCCC4)ccc32)c(C)c1 | inconclusive: 16.4 µM [cytotoxic, single point] |  |
